Measurements published in paper doi:10.1101/2023.08.20.554005.
No constants are given. Whether binding was seen depends on the method and setting. In cells and extracts the contact can be indirect. Here binding means that the protein was enriched with, or labelled near, the bait; the list need not be complete. For some assays here: Tags and fused reporters may be left off the sequences shown.

Chains of the proteins cited; added tags and fusions are not shown.
UniProt O75376: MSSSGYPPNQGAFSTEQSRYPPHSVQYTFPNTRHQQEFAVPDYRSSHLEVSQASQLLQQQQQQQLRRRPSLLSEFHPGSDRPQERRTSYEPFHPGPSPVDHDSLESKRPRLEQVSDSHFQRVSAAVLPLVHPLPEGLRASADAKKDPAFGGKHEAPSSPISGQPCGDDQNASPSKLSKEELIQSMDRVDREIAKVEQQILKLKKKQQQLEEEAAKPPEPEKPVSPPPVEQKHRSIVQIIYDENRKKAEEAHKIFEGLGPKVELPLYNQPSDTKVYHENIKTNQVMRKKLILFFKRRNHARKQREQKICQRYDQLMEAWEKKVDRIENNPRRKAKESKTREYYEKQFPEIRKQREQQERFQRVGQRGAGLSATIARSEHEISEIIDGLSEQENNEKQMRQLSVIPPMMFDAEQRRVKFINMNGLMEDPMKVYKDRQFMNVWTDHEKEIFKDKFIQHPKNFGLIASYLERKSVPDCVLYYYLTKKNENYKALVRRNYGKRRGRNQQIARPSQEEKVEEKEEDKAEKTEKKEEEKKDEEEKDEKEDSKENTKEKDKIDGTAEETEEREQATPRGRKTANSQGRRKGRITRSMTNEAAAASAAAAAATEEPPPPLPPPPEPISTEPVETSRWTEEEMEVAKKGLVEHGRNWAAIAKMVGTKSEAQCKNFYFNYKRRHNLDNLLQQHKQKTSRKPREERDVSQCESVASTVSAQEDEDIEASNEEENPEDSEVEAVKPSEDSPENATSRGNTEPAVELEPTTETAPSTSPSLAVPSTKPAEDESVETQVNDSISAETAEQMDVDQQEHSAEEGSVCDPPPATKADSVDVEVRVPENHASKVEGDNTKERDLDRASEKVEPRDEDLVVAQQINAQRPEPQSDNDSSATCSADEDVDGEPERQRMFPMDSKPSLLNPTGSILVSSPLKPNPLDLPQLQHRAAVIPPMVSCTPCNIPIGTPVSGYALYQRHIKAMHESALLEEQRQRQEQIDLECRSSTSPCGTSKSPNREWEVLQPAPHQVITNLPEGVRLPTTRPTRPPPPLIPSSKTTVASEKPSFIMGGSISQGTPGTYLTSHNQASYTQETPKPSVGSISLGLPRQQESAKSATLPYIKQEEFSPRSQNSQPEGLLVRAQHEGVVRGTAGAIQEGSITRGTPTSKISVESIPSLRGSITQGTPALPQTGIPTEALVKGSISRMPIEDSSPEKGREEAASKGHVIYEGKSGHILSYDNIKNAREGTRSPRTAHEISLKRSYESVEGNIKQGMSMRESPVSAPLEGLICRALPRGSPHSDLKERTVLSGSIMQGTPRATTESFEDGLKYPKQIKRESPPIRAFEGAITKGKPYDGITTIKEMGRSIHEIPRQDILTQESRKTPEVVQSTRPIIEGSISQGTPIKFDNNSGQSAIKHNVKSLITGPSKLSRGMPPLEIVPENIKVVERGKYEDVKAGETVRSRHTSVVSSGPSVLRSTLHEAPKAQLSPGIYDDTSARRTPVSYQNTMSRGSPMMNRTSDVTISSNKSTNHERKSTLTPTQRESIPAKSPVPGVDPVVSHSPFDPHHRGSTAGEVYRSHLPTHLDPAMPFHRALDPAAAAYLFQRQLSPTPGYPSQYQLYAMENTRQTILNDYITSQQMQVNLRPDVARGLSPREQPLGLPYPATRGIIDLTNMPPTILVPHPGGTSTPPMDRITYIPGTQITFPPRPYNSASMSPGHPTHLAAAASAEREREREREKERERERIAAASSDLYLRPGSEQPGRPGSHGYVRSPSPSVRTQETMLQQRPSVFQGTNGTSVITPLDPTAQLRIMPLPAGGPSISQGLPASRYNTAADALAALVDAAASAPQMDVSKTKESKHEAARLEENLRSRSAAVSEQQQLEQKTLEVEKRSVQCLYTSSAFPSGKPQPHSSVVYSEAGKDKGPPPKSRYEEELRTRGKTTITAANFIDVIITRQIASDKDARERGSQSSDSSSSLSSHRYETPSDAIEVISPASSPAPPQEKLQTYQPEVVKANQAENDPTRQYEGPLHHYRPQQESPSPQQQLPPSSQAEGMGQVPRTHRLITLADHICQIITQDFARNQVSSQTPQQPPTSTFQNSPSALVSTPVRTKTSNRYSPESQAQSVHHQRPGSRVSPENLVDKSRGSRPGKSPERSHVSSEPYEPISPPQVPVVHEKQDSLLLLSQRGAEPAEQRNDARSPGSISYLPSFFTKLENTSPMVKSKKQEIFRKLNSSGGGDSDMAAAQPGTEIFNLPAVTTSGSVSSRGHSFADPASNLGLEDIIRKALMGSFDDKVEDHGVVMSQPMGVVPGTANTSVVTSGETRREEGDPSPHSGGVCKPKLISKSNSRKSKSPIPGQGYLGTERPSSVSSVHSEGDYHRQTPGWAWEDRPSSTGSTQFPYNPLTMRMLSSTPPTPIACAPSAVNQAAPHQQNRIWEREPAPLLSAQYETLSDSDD
UniProt P51531: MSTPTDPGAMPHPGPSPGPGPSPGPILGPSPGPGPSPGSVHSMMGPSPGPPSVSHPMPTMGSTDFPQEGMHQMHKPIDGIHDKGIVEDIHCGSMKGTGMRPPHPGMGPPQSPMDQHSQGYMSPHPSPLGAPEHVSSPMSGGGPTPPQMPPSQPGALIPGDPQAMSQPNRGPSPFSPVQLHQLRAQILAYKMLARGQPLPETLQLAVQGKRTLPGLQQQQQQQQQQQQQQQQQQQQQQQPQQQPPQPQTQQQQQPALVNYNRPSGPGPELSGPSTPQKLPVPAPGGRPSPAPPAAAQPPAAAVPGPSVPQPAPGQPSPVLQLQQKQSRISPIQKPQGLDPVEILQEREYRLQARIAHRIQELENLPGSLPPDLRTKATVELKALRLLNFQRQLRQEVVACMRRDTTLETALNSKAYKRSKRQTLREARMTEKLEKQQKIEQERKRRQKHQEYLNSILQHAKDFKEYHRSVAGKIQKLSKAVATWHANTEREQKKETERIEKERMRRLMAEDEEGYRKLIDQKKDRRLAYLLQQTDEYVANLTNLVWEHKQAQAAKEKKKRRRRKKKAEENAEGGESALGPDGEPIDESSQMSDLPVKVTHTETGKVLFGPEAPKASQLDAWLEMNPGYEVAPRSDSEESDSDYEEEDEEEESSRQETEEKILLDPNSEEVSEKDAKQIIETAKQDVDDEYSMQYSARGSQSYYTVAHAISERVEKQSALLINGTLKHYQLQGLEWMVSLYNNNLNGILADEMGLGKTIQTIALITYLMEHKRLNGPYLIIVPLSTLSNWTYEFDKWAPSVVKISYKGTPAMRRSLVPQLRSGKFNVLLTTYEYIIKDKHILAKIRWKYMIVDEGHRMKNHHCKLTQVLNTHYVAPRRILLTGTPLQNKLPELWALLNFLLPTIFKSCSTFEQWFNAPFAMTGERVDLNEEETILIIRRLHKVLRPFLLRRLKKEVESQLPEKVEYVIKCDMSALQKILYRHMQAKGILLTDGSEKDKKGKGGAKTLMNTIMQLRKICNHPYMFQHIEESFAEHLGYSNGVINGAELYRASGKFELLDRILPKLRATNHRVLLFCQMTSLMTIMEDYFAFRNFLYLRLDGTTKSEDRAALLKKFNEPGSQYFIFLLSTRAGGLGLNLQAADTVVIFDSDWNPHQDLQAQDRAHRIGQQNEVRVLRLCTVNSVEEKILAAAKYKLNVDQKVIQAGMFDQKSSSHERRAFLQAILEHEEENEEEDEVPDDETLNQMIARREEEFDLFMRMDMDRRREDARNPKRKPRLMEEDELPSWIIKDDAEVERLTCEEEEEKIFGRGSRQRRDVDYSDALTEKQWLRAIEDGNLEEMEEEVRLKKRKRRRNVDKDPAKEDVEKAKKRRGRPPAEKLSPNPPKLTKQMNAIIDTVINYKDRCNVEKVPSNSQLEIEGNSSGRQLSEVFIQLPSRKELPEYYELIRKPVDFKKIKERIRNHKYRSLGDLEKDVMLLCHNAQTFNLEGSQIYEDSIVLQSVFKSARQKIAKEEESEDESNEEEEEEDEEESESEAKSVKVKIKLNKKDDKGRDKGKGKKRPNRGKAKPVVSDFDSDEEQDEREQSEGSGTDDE
UniProt P51532: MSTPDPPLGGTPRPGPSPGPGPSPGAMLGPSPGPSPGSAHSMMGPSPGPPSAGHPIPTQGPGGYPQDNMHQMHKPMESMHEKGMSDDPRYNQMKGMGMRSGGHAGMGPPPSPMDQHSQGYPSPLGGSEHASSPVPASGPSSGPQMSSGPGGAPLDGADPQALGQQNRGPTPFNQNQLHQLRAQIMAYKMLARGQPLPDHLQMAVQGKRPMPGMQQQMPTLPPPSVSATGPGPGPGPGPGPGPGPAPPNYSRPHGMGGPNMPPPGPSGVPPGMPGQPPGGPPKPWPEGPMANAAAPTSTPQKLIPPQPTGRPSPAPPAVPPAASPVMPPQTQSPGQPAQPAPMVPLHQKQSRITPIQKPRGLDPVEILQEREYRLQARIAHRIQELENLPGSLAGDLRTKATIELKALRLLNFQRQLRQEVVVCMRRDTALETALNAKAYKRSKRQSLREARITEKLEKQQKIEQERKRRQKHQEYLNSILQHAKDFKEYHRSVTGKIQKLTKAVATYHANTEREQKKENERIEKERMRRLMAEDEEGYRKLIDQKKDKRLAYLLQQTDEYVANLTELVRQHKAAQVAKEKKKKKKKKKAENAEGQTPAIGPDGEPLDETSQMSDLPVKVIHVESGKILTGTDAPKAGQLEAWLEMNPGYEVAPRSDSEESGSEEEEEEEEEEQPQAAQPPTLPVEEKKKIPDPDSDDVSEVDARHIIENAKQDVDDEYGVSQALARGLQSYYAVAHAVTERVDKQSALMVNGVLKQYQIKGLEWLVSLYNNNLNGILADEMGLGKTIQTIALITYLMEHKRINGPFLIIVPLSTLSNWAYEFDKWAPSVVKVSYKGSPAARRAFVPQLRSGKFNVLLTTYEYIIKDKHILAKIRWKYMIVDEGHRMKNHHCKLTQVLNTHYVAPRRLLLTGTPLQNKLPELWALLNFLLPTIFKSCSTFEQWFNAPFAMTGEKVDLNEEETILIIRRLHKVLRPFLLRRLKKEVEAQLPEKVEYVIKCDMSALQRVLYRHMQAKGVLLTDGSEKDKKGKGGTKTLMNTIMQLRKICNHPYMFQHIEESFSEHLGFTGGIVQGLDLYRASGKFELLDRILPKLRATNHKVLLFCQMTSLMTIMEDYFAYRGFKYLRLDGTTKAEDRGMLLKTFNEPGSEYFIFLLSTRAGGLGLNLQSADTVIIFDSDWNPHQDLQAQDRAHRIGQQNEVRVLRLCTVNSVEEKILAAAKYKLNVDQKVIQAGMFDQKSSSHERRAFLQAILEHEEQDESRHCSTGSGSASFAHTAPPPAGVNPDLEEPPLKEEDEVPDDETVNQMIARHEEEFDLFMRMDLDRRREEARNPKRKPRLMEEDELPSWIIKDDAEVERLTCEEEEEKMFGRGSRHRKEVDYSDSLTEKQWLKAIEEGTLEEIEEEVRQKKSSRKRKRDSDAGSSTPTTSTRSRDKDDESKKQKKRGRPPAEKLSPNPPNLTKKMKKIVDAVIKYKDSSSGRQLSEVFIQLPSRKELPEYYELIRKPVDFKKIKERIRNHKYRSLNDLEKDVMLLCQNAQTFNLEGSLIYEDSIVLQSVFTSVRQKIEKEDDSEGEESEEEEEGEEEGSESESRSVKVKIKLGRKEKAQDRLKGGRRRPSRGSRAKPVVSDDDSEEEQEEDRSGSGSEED
UniProt P46937: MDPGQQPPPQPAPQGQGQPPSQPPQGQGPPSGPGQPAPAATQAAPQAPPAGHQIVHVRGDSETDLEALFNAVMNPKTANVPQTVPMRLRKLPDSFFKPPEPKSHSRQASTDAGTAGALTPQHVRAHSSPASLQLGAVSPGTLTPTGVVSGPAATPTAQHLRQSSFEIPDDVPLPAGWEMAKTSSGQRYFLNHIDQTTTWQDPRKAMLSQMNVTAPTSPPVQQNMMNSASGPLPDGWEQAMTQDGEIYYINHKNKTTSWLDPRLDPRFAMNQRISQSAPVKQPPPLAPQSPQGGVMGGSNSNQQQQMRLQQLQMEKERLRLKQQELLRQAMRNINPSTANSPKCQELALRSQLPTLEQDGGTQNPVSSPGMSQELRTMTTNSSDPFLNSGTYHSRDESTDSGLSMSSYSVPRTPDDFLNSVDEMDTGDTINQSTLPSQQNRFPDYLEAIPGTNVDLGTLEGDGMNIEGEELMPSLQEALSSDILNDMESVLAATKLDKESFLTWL

T1: BirA*-Flag JUN WT, P05412
T1 chain: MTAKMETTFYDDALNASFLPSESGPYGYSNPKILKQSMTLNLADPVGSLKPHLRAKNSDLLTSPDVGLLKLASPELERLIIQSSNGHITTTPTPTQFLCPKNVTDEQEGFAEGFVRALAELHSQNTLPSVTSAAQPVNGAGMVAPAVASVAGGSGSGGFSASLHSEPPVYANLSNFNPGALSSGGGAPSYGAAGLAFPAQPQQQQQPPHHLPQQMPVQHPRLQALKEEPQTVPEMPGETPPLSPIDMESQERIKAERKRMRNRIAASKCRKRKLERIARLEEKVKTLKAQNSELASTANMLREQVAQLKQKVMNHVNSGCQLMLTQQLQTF


What was measured:
[1] = biological target: BirA*-Flag JUN WT (UniProt P05412); experiment: proximity labelling
[2] = biological target: T1, BirA*-Flag JUN WT, P05412; experiment: proximity labelling; settings: remark: other sources report otherwise

Molecule	binding [1]	binding [2]
NCOR1 (from UniProt O75376 1-2440)	binds	–
SMARCA2 (from UniProt P51531 1-1590)	binds	–
SMARCA4 (from UniProt P51532 1-1647)	binds	–
Yes-associated protein (YAP) (from UniProt P46937 1-504)	binds	–
FOSB, P53539 1-338 (protein) MFQAFPGDYDSGSRCSSSPSAESQYLSSVDSFGSPPTAAASQECAGLGEMPGSFVPTVTAITTSQDLQWLVQPTLISSMAQSQGQPLASQPPVVDPYDMPGTSYSTPGMSGYSSGGASGSGGPSTSGTTSGPGPARPARARPRRPREETLTPEEEEKRRVRRERNKLAAAKCRNRRRELTDRLQAETDQLEEEKAELESEIAELQKEKERLEFVLVAHKPGCKIPYEEGPGPGPLAEVRDLPGSAPAKEDGFSWLLPPPPPPPLPFQTSQDAPPNLTASLFTHSEVQVLGDPFPVVNPSYTSSFVLTCPEVSAFAGAQRTSGSDQPSDPLNSPSLLAL	–	binds
